Data: the supplement of paper PMC6445147
Values scatter widely in this assay.

B1: human tRNA-Pro; a variant is named by its letters at N, in order (parent)
chain: GGCTCGTTGGTCTAGNGGTATGATTCTCGCTTAGGGTGCGAGAGGTCCCGGGTTCNNATCCCGGACGAGCCC

How the values were obtained:
[1] = variants of: B1; assay: tRNA Pol-III promoter activity, log2 (circRNA frequency / plasmid DNA frequency) (log2 ratio); higher = stronger promoter activity; conditions: HEK293T; construct: no Pol-II promoter ((-)CMV library)
[2] = variants of: B1; assay: tRNA 3' processing efficiency (processed reads / all reads, maximum-likelihood estimate) (fraction); higher = more efficient 3' processing; conditions: HEK293T; construct: no Pol-II promoter ((-)CMV library)
[3] = variants of: B1; assay: tRNA 5' processing efficiency (processed reads / all reads, maximum-likelihood estimate) (fraction); higher = more efficient 5' processing; conditions: HEK293T; construct: CMV Pol-II promoter ((+)CMV library, decapped)

| Variant | tRNA Pol-III promoter activity (log2) [1] | tRNA 3' processing efficiency [2] | tRNA 5' processing efficiency [3] |
| --- | --- | --- | --- |
| GAA T19C T54A | 1.02 | 0.2 |  |
| GAC G18A T19C | 3.19 | 0.33 |  |
| GTA G18A | -0.101 | 0.37 |  |
| GTA T19C T54G | 4.77 | 0.4 |  |
| GAA T19G T59C | 1.54 | 0.33 |  |
| TAA T19G A58T | 2.76 | 0.25 |  |
| GAA A14C T59A | 2.44 | 0.46 |  |
| GGA G9A A14G C55T | 3.67 | 0.6 |  |
| GAA A14G T53G | 0.701 | 0.36 |  |
| CTG A20T | 2.07 | 0.13 |  |
| GAA G15A G17T T59G | 2.34 | 0.33 |  |
| GAA G9C T19C T59C | 5.36 | 0.4 |  |
| TAA G17T | -1.23 | 0.67 |  |
| TAA A20C T53A | 4.63 | 0.1 | 0.25 |
| GCA T53A | 1.8 | 0.13 |  |
| GAT T19G A58T | 0.694 | 0.5 |  |
| GAA T19A T53A | 2.21 | 0.26 | 0.33 |
| GAA G9T T59G | 2.26 | 0.47 |  |
| GAA T8G G15C | -0.307 | 0.35 |  |
| GAC T8C T19C | 2.61 | 0.25 |  |
| GAC G9T A20G | 3.08 | 0.22 |  |
| GAA G9A T53G | 0.831 | 0.67 |  |
| GAA T8A G15T G18T | 5.62 | 0.83 |  |

| Variant | tRNA Pol-III promoter activity (log2) [1] | tRNA 3' processing efficiency [2] | tRNA 5' processing efficiency [3] |
| --- | --- | --- | --- |
| GAA G15C T19A T53A | 4.26 | 0.29 |  |
| GAA A14T T59C | 3.13 | 0.32 |  |
| GAC T54A T59G | 4.26 | 0.71 |  |
| TTC A20T | 6.94 | 0.75 |  |
| GAA T19A T53A T59C | 4.41 | 0.29 |  |
| TAA A14G A20T T53G | 5.74 | 0.14 |  |
| GAA G15A A58C | 1.39 | 0.29 |  |
| GAG A14T G18A T19G | 3.08 | 0.2 |  |
| GTA G15T G17A A58C | 4.15 | 0.43 |  |
| TAT A20T | 2.54 | 0.5 |  |
| TAG G15T | 3.14 | 0.15 |  |
| GCA A14T A20C C55T | 7.03 | 0.87 |  |
| GGA T8C C55A | 3.46 | 0.4 |  |
| GAA A20G A58T | 0.863 | 0.34 |  |
| GAA T19A T53C | 1.5 | 0.48 |  |
| GAA A14C C55G | 0.942 | 0.4 | 0.2 |
| CGT G15T | 5.19 | 0.17 |  |
| GAA A14T A58G T59G | 4.32 | 0.35 |  |
| GCA G15C | -0.326 | 0.33 | 0.4 |
| GAC A20T T53C C55A | 6.03 | 0.42 |  |
| GGG T8C T19A | 6.62 | 0.17 |  |
| GAA C55A | -2.05 | 0.63 | 0.27 |
| GCA A14G T59C | 1.94 | 0.33 |  |

| Variant | tRNA Pol-III promoter activity (log2) [1] | tRNA 3' processing efficiency [2] | tRNA 5' processing efficiency [3] |
| --- | --- | --- | --- |
| GAA G15C A58T T59G | 3.4 | 0.39 |  |
| GAA T8G G36A | 5.25 | 0.3 |  |
| GAA A14G G15T A58C | 4.67 | 0.88 |  |
| ACA T8C T19A C55G | 5.93 | 0.25 |  |
| GGC T59G | 5.36 | 0.4 |  |
| GGG G18A | 2.17 | 0.25 |  |
| GAT G15T G17T | 2.55 | 0.2 |  |
| GAA T8C G9T A20T | 3.21 | 0.56 |  |
| GAA T8C T19C T53A | 3.81 | 0.5 |  |
| GAA T19C C55T | -0.408 | 0.4 |  |
| TAT A20G | 3.2 | 0.33 |  |
| GAT G17C T53A | 4.07 | 0.64 |  |
| GAC A20G T59C | 2.75 | 0.43 |  |
| TAA A14C T53A | 4.77 | 0.38 |  |
| GAA T8C A20T A58C | 4.85 | 0.12 |  |
| CTA A14T A58T | 5.84 | 0.57 |  |
| TAA A14T T59A | 3.41 | 0.57 |  |
| TAA T53G C55T | 3.12 | 0.38 |  |
| ATA T54A | 3.36 | 0.4 |  |
| TGA T53A A58G | 4.34 | 0.25 |  |
| GTG G18A | 2.57 | 0.25 |  |
| AAA A14T A20T T59C | 6.25 | 0.2 |  |
| GAA A14T G18A A58G | 1.62 | 0.25 |  |

No new results follow: entries from further up.

| Variant | tRNA Pol-III promoter activity (log2) [1] | tRNA 3' processing efficiency [2] | tRNA 5' processing efficiency [3] |
| --- | --- | --- | --- |
| GAC T54A T59G | 4.26 | 0.71 |  |
| TTC A20T | 6.94 | 0.75 |  |
| GAA T19A T53A T59C | 4.41 | 0.29 |  |
| TAA A14G A20T T53G | 5.74 | 0.14 |  |
| GAA G15A A58C | 1.39 | 0.29 |  |

(cont.)

| Variant | tRNA Pol-III promoter activity (log2) [1] | tRNA 3' processing efficiency [2] | tRNA 5' processing efficiency [3] |
| --- | --- | --- | --- |
| GAA T8C T19A T59A | 4.36 | 0.25 |  |
| GTA G18A A58T | 3.24 | 0.5 |  |
| GAA G15A G50A | 5.25 | 0.29 |  |
| GTA G9A T19A T59C | 5.03 | 0.5 |  |
| GTA A14T T59G | 3.4 | 0.83 |  |
| GAA T19G | -1.21 | 0.36 | 0.35 |
| TGT | 3.23 | 0.25 |  |
| GTA T8C T54C | 3.72 | 0.17 |  |
| TAT T8C | 1.94 | 0.25 | 0.25 |
| GTA T8G G15C | 3.25 | 0.2 |  |
| GAA A14G G17A T19A C55T | 4.93 | 0.33 |  |
| GAA G9A A58C T59A | 5.39 | 0.18 |  |
| GAA A58T | 0.581 | 0.48 | 0.32 |
| GTT A14C A58T | 3.93 | 0.25 |  |
| GAA A14T A58G | 0.739 | 0.32 |  |
| GAA G9A A14G T53A | 4.61 | 0.62 |  |
| TAT T19C | 4.63 | 0.46 |  |
| GAA G9A A14T T59C | 3.74 | 0.14 |  |
| GTA C55A | -1.49 | 0.25 |  |
| GGA A14G | 1.28 | 0.4 | 0.13 |
| GAA A14C G18T T59C | 5.63 | 0.69 |  |
| CAG T8G | 3.29 | 0.14 |  |
| AAA C55T T59G | 2.94 | 0.25 |  |

| Variant | tRNA Pol-III promoter activity (log2) [1] | tRNA 3' processing efficiency [2] | tRNA 5' processing efficiency [3] |
| --- | --- | --- | --- |
| CAC A20G | 3.62 | 0.25 | 0.25 |
| GGG A14C A58T | 4.03 | 0.25 |  |
| GAA G17C T54C A58T | 2.79 | 0.56 |  |
| GAT G50A | 4.26 | 0.2 |  |
| CAG A14T | 4.36 | 0.26 |  |
| GGT | 3.45 | 0.32 |  |
| GAA T19G A58G T59G | 7.2 | 0.11 |  |
| TAG A20T T59G | 5.93 | 0.25 |  |
| GGA A14T T53A T59C | 6.64 | 0.69 |  |
| GAA A14T G15T | -0.414 | 0.33 | 0.25 |
| GAT G17A G18A | 5.87 | 0.62 |  |
| GAA G51C | 6.03 | 0.25 |  |
| GTA A14T A58T T59C | 5.26 | 0.57 |  |
| GAA G17A T53A T59A | 5.94 | 0.25 |  |
| GTA A20G A58G | 4.26 | 0.4 |  |
| GTA A14G A58T | 3.26 | 0.4 |  |
| GGA T19G C55T | 2.66 | 0.4 |  |
| GTA G9C G15A T59G | 3.53 | 0.33 |  |
| GGC T54C | 4.03 | 0.4 |  |
| GAA G18T A58G T59G | 3.36 | 0.25 |  |
